Assay results: publication doi:10.1101/2020.11.23.394106 (bioRxiv, 2020)
Where two headings read alike, the source gives them in different places. These are yes or no findings as the source states them, for the method shown. For part of these data: In cells and extracts the contact can be indirect. Some entries that bind do so weakly or less than the wild type. For part of these data: Sequences can lack the tags named with a protein.

Amino acid sequences for entries named in this document (tags omitted). A change or cut given only in a name is not applied to a line headed by its entry. Residues count along the entry.
UniProt P35240, residues 22-312: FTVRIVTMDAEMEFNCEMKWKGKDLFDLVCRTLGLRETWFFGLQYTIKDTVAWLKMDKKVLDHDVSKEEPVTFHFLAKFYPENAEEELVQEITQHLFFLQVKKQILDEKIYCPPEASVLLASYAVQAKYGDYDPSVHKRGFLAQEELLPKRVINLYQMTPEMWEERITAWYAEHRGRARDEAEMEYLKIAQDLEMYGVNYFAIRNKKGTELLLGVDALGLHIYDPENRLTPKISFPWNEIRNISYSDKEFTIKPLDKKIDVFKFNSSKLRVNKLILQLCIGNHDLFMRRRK
UniProt O14745: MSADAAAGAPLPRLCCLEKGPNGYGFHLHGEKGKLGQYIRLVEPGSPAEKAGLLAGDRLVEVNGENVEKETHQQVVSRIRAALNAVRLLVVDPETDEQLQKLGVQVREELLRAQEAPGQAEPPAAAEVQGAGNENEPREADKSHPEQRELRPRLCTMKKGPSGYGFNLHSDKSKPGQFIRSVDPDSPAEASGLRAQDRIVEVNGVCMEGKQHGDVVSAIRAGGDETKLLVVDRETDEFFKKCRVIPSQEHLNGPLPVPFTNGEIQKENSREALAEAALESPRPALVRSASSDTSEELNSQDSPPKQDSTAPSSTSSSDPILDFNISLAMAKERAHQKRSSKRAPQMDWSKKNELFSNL
UniProt Q8IZU9: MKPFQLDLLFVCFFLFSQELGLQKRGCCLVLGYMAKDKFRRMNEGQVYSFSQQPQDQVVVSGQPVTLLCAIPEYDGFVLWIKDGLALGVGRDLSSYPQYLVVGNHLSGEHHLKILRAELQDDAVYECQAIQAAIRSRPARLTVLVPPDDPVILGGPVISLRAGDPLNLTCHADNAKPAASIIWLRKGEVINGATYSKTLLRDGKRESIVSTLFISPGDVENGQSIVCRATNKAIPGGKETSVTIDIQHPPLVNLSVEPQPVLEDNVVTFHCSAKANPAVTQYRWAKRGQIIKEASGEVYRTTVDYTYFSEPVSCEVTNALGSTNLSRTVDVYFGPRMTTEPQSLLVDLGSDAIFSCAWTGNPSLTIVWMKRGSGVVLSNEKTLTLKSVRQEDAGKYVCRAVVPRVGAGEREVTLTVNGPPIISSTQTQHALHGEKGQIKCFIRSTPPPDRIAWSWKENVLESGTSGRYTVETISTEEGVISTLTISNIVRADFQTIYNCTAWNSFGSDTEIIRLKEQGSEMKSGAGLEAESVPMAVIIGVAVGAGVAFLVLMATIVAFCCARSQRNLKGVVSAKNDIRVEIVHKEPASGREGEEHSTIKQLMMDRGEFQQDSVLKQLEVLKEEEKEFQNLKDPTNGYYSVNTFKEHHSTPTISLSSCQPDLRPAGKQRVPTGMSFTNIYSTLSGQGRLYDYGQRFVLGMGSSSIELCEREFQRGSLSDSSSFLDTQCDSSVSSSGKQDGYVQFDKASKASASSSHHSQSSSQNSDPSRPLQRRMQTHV
UniProt P57082: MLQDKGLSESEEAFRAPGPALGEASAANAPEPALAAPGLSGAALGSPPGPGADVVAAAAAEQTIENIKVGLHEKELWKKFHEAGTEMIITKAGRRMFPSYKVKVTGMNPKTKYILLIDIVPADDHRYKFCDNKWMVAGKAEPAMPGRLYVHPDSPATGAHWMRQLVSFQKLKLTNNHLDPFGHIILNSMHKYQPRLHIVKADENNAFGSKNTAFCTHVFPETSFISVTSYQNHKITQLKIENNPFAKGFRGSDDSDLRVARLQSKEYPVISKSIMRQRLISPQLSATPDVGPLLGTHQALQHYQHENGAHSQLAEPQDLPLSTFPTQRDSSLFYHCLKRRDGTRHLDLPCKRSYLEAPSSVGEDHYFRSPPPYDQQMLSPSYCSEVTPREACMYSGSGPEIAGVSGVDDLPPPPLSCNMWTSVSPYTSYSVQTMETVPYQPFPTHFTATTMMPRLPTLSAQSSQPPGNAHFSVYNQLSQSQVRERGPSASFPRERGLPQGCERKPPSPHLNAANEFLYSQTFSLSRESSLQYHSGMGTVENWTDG
UniProt Q969S3: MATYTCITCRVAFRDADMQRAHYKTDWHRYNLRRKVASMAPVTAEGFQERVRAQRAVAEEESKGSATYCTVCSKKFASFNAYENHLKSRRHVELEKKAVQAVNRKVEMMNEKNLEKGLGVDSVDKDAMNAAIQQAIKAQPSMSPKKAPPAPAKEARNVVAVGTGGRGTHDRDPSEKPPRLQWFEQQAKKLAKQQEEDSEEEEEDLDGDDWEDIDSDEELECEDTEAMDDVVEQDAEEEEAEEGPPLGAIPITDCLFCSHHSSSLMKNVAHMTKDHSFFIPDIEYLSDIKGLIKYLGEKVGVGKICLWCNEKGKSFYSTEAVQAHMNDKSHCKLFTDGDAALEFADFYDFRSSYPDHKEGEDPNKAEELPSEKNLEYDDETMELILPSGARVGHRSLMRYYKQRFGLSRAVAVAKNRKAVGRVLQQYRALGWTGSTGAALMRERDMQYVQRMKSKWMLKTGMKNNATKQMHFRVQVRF
UniProt P26038, residues 2-295: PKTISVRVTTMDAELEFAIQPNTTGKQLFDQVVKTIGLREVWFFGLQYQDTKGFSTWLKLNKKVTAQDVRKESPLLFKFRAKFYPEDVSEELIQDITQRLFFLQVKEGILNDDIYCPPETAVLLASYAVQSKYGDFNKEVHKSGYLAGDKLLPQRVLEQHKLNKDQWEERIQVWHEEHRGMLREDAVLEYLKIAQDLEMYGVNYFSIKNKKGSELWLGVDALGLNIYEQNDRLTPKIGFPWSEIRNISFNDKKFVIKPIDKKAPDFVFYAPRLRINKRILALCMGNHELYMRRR
UniProt P15311, residues 2-296: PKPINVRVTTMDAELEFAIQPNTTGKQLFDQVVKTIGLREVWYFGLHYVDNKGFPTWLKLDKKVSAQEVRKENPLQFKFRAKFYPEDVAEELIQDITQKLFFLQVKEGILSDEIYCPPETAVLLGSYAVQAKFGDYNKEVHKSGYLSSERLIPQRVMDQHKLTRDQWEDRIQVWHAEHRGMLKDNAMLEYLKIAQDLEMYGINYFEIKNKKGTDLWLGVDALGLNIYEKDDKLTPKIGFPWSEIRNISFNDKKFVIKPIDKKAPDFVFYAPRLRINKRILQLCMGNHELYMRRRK
UniProt Q9NQU5: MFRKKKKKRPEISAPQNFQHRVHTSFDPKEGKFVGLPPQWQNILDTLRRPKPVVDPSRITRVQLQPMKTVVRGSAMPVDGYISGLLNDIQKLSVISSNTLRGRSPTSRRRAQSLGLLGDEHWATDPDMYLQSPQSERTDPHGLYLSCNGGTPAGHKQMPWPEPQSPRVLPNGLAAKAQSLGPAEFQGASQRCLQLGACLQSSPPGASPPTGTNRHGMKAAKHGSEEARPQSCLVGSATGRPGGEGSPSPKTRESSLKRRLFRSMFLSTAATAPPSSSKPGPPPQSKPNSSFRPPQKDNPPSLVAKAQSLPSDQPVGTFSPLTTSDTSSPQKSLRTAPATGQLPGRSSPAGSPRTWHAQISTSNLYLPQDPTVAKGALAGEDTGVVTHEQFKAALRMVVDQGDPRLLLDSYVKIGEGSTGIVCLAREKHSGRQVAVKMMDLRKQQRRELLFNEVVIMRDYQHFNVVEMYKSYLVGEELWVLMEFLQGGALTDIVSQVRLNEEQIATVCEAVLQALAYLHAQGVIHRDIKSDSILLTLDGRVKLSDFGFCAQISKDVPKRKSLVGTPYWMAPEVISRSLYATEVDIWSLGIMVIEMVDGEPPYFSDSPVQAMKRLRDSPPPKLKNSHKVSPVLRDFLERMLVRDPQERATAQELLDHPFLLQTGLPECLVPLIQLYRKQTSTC
UniProt Q16665: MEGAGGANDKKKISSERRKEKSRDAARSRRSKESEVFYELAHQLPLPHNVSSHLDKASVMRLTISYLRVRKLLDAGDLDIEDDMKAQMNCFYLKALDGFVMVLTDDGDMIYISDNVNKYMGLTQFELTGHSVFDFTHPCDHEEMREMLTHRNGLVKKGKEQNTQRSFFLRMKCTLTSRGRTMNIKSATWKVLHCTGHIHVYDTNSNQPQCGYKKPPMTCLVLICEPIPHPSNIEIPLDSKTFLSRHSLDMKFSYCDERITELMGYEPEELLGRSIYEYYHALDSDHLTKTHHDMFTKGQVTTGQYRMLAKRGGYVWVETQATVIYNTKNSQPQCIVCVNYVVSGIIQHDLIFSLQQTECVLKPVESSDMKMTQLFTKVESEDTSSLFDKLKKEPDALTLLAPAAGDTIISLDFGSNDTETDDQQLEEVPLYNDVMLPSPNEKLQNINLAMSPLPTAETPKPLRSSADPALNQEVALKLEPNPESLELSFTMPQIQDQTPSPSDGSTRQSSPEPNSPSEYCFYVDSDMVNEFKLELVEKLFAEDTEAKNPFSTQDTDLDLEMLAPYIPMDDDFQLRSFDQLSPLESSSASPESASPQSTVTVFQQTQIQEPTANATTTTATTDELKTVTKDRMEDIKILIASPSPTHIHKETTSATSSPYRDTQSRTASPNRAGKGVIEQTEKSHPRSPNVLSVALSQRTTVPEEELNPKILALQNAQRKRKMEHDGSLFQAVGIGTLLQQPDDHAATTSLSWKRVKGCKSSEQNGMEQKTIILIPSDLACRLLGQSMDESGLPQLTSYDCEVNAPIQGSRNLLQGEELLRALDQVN
UniProt Q8IVT2: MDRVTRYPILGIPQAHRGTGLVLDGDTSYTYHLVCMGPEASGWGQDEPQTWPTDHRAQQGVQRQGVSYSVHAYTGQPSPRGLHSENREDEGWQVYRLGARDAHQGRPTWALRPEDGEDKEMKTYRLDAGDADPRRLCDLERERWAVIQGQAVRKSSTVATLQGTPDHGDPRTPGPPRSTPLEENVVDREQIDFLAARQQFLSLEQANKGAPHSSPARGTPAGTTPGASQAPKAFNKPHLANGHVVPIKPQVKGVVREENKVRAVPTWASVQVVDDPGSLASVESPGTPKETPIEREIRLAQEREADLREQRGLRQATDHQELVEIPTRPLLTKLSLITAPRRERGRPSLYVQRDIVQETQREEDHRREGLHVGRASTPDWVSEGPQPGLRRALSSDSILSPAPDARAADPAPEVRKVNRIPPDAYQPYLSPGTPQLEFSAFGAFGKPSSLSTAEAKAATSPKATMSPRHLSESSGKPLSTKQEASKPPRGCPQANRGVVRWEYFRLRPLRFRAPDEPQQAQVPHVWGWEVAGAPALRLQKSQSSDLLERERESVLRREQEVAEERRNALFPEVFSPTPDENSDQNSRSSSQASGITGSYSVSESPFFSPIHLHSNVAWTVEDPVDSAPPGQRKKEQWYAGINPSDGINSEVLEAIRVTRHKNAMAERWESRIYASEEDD

Experiments:
[1] = molecular target: GST-tagged merlin FERM domain (22-312) (human) (UniProt P35240); test: pull-down
[2] = molecular target: T1, FITC-labeled EBP50_(343-358) (UniProt O14745); test: fluorescence polarisation
T1 sequence (peptide, FITC label): APQMDWSKKNELFSNL

[3] = molecular target: T2, FITC-labeled FAM83G_(111-126) (human); test: fluorescence polarisation
T2 sequence (peptide, FITC label): AEPLPSLEYWPQKSDR

[4] = molecular target: T3, FITC-labeled KIRREL3_(637-652) (human) (UniProt Q8IZU9); test: fluorescence polarisation
T3 sequence (peptide, FITC label): YYSVNTFKEHHSTPTI

[5] = molecular target: T4, FITC-labeled LATS1_(73-88) (human); test: fluorescence polarisation
T4 sequence (peptide, FITC label): THHKALQEIRNSLLPF

[6] = molecular target: T5, FITC-labeled TBX4_(428-443) (human) (UniProt P57082); test: fluorescence polarisation
T5 sequence (peptide, FITC label): SYSVQTMETVPYQPFP

[7] = molecular target: T6, FITC-labeled ZNF622_(341-356) (human) (UniProt Q969S3); test: fluorescence polarisation
T6 sequence (peptide, FITC label): LEFADFYDFRSSYPDH

[8] = molecular target: T1, FITC-labeled EBP50_(343-358); test: fluorescence polarisation; remark: listed apart in the source
[9] = molecular target: T3, FITC-labeled KIRREL3_(637-652) (human); test: fluorescence polarisation; remark: listed apart in the source
[10] = molecular target: T6, FITC-labeled ZNF622_(341-356) (human); test: fluorescence polarisation; remark: listed apart in the source
[11] = molecular target: T5, FITC-labeled TBX4_(428-443) (human); test: fluorescence polarisation; remark: listed apart in the source
[12] = molecular target: GST-tagged moesin FERM domain (UniProt P26038); test: pull-down
[13] = molecular target: GST-tagged moesin FERM domain (UniProt P26038); test: competitive ProP-PD selection
[14] = molecular target: moesin FERM domain, GST tag cleaved (UniProt P26038 2-295); test: fluorescence polarisation
[15] = molecular target: GST-tagged ezrin FERM domain (UniProt P15311); test: ELISA
[16] = molecular target: GST-tagged merlin FERM domain (22-312) (human) (UniProt P35240); test: ELISA
[17] = molecular target: GST-tagged moesin FERM domain (UniProt P26038); test: ELISA

In the case of “full-length PAK6 (HA-PAK6) (from UniProt Q9NQU5 1-681)”, the binding [1] is reported as “binds”.

In the case of “moesin FERM domain, GST tag cleaved (from UniProt P26038 2-295) (domain or fragment)”, the binding [2] is reported as “binds”, the binding [3] is reported as “binds weakly” and the binding [4] is reported as “binds”. For the same molecule, the binding [5] was “binds”, the binding [6] was “binds” and the binding [7] was “binds”. For the same molecule, the binding [8] was “binds”, the binding [9] was “binds” and the binding [10] was “binds”. The binding [11] was “binds”.

“full-length HIF1A (HA-HIF1-alpha) (from UniProt Q16665 1-826)” was tested, and the binding [12] was “binds”.

“HIF1A_(37-52), phage-displayed (from UniProt Q16665 37-52) (peptide)” was tested, and the binding [13] was “binds”.

“HIF1A_(37-52), unlabeled peptide (from UniProt Q16665 37-52)” was tested, and the binding [14] was “binds”.

B1: FAM83G_(111-126), phage-displayed (peptide)
peptide: AEPLPSLEYWPQKSDR
In the case of B1, the binding [15] is reported as “binds”, the binding [16] is reported as “binds” and the binding [17] is reported as “binds”.

B2: FAM83G_(111-126) with the N-terminal region deleted (AEPLP deletion), phage-displayed (peptide)
peptide: SLEYWPQKSDR
B2 was tested, and the binding [16] was “binds”.

B3: FAM83G_(111-126) with the C-terminal region deleted (KSDR deletion), phage-displayed (peptide)
peptide: AEPLPSLEYWPQ
With B3 the binding [16] was “binds”.

B4: RRBP1_(1365-1380), phage-displayed (peptide)
peptide: RAATRLQELLKTTQEQ
B4 was tested, and the binding [15] was “binds”, the binding [16] was “binds” and the binding [17] was “binds”.

B5: full-length RRBP1 (RRBP1-GFP) (protein, UniProt Q9P2E9 1-1410)
chain: MDIYDTQTLGVVVFGGFMVVSAIGIFLVSTFSMKETSYEEALANQRKEMAKTHHQKVEKKKKEKTVEKKGKTKKKEEKPNGKIPDHDPAPNVTVLLREPVRAPAVAVAPTPVQPPIIVAPVATVPAMPQEKLASSPKDKKKKEKKVAKVEPAVSSVVNSIQVLTSKAAILETAPKEVPMVVVPPVGAKGNTPATGTTQGKKAEGTQNQSKKAEGAPNQGRKAEGTPNQGKKTEGTPNQGKKAEGTPNQGKKAEGTPNQGKKAEGAQNQGKKVDTTPNQGKKVEGAPTQGRKAEGAQNQAKKVEGAQNQGKKAEGAQNQGKKGEGAQNQGKKAEGAQNQGKKAEGAQNQGKKAEGAQNQGKKAEGAQNQGKKAEGAQNQGKKAEGAQNQGKKVEGAQNQGKKAEGAQNQGKKAEGAQNQGKKAEGAQNQGKKAEGAQNQGKKAEGAQNQGKKAEGAQNQGKKAEGAQNQGKKVEGAQNQGKKAEGAQNQGKKAEGAQNQGKKAEGAQNQGQKGEGAQNQGKKTEGAQGKKAERSPNQGKKGEGAPIQGKKADSVANQGTKVEGITNQGKKAEGSPSEGKKAEGSPNQGKKADAAANQGKKTESASVQGRNTDVAQSPEAPKQEAPAKKKSGSKKKGEPGPPDADGPLYLPYKTLVSTVGSMVFNEGEAQRLIEILSEKAGIIQDTWHKATQKGDPVAILKRQLEEKEKLLATEQEDAAVAKSKLRELNKEMAAEKAKAAAGEAKVKKQLVAREQEITAVQARMQASYREHVKEVQQLQGKIRTLQEQLENGPNTQLARLQQENSILRDALNQATSQVESKQNAELAKLRQELSKVSKELVEKSEAVRQDEQQRKALEAKAAAFEKQVLQLQASHRESEEALQKRLDEVSRELCHTQSSHASLRADAEKAQEQQQQMAELHSKLQSSEAEVRSKCEELSGLHGQLQEARAENSQLTERIRSIEALLEAGQARDAQDVQASQAEADQQQTRLKELESQVSGLEKEAIELREAVEQQKVKNNDLREKNWKAMEALATAEQACKEKLLSLTQAKEESEKQLCLIEAQTMEALLALLPELSVLAQQNYTEWLQDLKEKGPTLLKHPPAPAEPSSDLASKLREAEETQSTLQAECDQYRSILAETEGMLRDLQKSVEEEEQVWRAKVGAAEEELQKSRVTVKHLEEIVEKLKGELESSDQVREHTSHLEAELEKHMAAASAECQNYAKEVAGLRQLLLESQSQLDAAKSEAQKQSDELALVRQQLSEMKSHVEDGDIAGAPASSPEAPPAEQDPVQLKTQLEWTEAILEDEQTQRQKLTAEFEEAQTSACRLQEELEKLRTAGPLESSETEEASQLKERLEKEKKLTSDLGRAATRLQELLKTTQEQLAREKDTVKKLQEQLEKAEDGSSSKEGTSV
For B5, the binding [1] was “binds”.

B6: EBP50_(343-358), unlabeled peptide (peptide, UniProt O14745 343-358)
peptide: APQMDWSKKNELFSNL
In the case of B6, the binding [14] is reported as “binds”.

B7: ZNF622_(341-356), unlabeled peptide (peptide, UniProt Q969S3 341-356)
peptide: LEFADFYDFRSSYPDH
B7 was tested, and the binding [14] was “binds”.

B8: TBX4_(428-443), unlabeled peptide (peptide, UniProt P57082 428-443)
peptide: SYSVQTMETVPYQPFP
B8 was tested, and the binding [14] was “binds”.

B9: MISP_(595-610), unlabeled peptide (peptide, UniProt Q8IVT2 595-610)
peptide: ITGSYSVSESPFFSPI
In the case of B9, the binding [14] is reported as “binds”.

B10: LATS1_(73-88), unlabeled peptide (peptide)
peptide: THHKALQEIRNSLLPF
For B10, the binding [14] was “binds”.

B11: TBX4 peptide with N-terminal extension of three amino acids, unlabeled (peptide, UniProt P57082 425-443)
peptide: PYTSYSVQTMETVPYQPFP
In the case of B11, the binding [14] is reported as “binds”.

B12: LATS1_(73-88), phage-displayed (peptide)
peptide: THHKALQEIRNSLLPF
With B12 the binding [13] was “binds”.
